Test results taken from publication PMC10650109.
These are yes or no findings as the source states them, for the method shown. Binding seen in cells or lysates may run through a third protein. These calls come from enrichment with a bait or labelling near it, and not all partners need be listed. Where a sequence is shown, tags or fusion partners need not be part of it.

Chains of the proteins cited; added tags and fusions are not shown.
UniProt Q99527: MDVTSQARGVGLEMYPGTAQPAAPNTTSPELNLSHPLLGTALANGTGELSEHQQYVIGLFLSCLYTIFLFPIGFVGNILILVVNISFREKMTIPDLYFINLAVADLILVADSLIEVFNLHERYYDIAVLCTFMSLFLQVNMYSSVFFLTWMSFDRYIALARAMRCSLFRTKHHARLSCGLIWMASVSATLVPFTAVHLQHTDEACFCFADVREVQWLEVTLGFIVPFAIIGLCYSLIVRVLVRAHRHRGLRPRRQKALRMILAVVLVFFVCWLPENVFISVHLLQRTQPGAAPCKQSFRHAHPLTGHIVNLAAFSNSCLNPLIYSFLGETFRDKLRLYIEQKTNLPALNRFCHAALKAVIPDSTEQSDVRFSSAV

Experiments:
[1] = target: N-terminally 3xFLAG-tagged GPER1 fused to APEX2 (UniProt Q99527); assay: affinity purification with mass spectrometry; F-GPER1 or F-GPER1-APEX2 in transfected HEK293T; lysis buffer 10 mM Tris-HCl pH 7.5, 50 mM NaCl, 1 mM EDTA, 10% glycerol, 10 mM Na-molybdate; anti-FLAG IP overnight at 4 °C, Protein G Dynabeads, mouse IgG as control; LC-MS/MS
[2] = target: N-terminally 3xFLAG-tagged GPER1 (G protein-coupled estrogen receptor 1) (UniProt Q99527); assay: as above
[3] = target: N-terminally 3xFLAG-tagged GPER1 fused to APEX2 (UniProt Q99527); assay: proximity labelling; F-GPER1-APEX2 in transfected HEK293T cells; 500 µM biotinyl tyramide 45 min, 1 mM H2O2 1 min, without or with 100 nM E2 for 10 min; RIPA lysate, streptavidin magnetic beads, LC-MS/MS; compared with F-APEX2-NES; 3 biological replicates

Measured: binding

B1: CLPTM1 (protein, UniProt O96005 1-669)
chain: MAAAQEADGARSAVVAAGGGSSGQVTSNGSIGRDPPAETQPQNPPAQPAPNAWQVIKGVLFRIFIIWAISSWFRRGPAPQDQAGPGGAPRVASRNLFPKDTLMNLHVYISEHEHFTDFNATSALFWEQHDLVYGDWTSGENSDGCYEHFAELDIPQSVQQNGSIYIHVYFTKSGFHPDPRQKALYRRLATVHMSRMINKYKRRRFQKTKNLLTGETEADPEMIKRAEDYGPVEVISHWHPNITINIVDDHTPWVKGSVPPPLDQYVKFDAVSGDYYPIIYFNDYWNLQKDYYPINESLASLPLRVSFCPLSLWRWQLYAAQSTKSPWNFLGDELYEQSDEEQDSVKVALLETNPYLLALTIIVSIVHSVFEFLAFKNDIQFWNSRQSLEGLSVRSVFFGVFQSFVVLLYILDNETNFVVQVSVFIGVLIDLWKITKVMDVRLDREHRVAGIFPRLSFKDKSTYIESSTKVYDDMAFRYLSWILFPLLGCYAVYSLLYLEHKGWYSWVLSMLYGFLLTFGFITMTPQLFINYKLKSVAHLPWRMLTYKALNTFIDDLFAFVIKMPVMYRIGCLRDDVVFFIYLYQRWIYRVDPTRVNEFGMSGEDPTAAAPVAEVPTAAGALTPTPAPTTTTATREEASTSLPTKPTQGASSASEPQEAPPKPAEDKKKD
binds: all assays above

B2: neutral α-glucosidase AB (GANAB), catalytic subunit of α-glucosidase II (enzyme, UniProt Q14697 29-944)
chain: ITLAVDRSNFKTCEESSFCKRQRSIRPGLSPYRALLDSLQLGPDSLTVHLIHEVTKVLLVLELQGLQKNMTRFRIDELEPRRPRYRVPDVLVADPPIARLSVSGRDENSVELTMAEGPYKIILTARPFRLDLLEDRSLLLSVNARGLLEFEHQRAPRVSQGSKDPAEGDGAQPEETPRDGDKPEETQGKAEKDEPGAWEETFKTHSDSKPYGPMSVGLDFSLPGMEHVYGIPEHADNLRLKVTEGGEPYRLYNLDVFQYELYNPMALYGSVPVLLAHNPHRDLGIFWLNAAETWVDISSNTAGKTLFGKMMDYLQGSGETPQTDVRWMSETGIIDVFLLLGPSISDVFRQYASLTGTQALPPLFSLGYHQSRWNYRDEADVLEVDQGFDDHNLPCDVIWLDIEHADGKRYFTWDPSRFPQPRTMLERLASKRRKLVAIVDPHIKVDSGYRVHEELRNLGLYVKTRDGSDYEGWCWPGSAGYPDFTNPTMRAWWANMFSYDNYEGSAPNLFVWNDMNEPSVFNGPEVTMLKDAQHYGGWEHRDVHNIYGLYVHMATADGLRQRSGGMERPFVLARAFFAGSQRFGAVWTGDNTAEWDHLKISIPMCLSLGLVGLSFCGADVGGFFKNPEPELLVRWYQMGAYQPFFRAHAHLDTGRREPWLLPSQHNDIIRDALGQRYSLLPFWYTLLYQAHREGIPVMRPLWVQYPQDVTTFNIDDQYLLGDALLVHPVSDSGAHGVQVYLPGQGEVWYDIQSYQKHHGPQTLYLPVTLSSIPVFQRGGTIVPRWMRVRRSSECMKDDPITLFVALSPQGTAQGELFLDDGHTFNYQTRQEFLLRRFSFSGNTLVSSSADPEGHFETPIWIERVVIIGAGKPAAVVLQTKGSPESRLSFQHDPETSVLVLRKPGINVASDWSIHLR
binds: all assays above
